Tested on: 5-HT1F mediated inhibition of neuronal protein extravasation
Experiment: Specificity Index: vasoconstriction relative to 5-HT1F mediated inhibition of neuronal protein extravasation

SMILES	S[…] (RATIO B/A)
CCN(CC)C1CCc2cccc(Cl)c2C1.Cl (centres unmarked) [Compound IV, 8-chloro-2-diethylamino-1,2,3,4-tetrahydronaphthalene hydrochloride]	0.01
CN(C)C1CCc2[nH]c3ccc(O)cc3c2C1 (centres unmarked) [Compound V, 6-hydroxy-3-dimethylamino-1,2,3,4-tetrahydrocarbazole]	> 923

Source: patent publication US5698571A, “5-HT1F mediated inhibition of neurogenic meningeal extravasation: a method for the treatment of migraine” (Eli Lilly and Company, priority 1994, dated 1997)
